According to paper PMC12033915:
Substitutions are numbered along the chain they refer to. Results are given in words; binding and its absence hold for the method and conditions named. For some of these results: Binding seen in cells or lysates may run through a third protein. Some entries that bind do so weakly or less than the wild type. For some of these results: Where a sequence is shown, tags or fusion partners need not be part of it.

By UniProt entry, the sequences of proteins in these tests, tags left out. Where a name states a change or a piece, a line headed by the entry shows the natural chain unless it says otherwise.
UniProt P11940: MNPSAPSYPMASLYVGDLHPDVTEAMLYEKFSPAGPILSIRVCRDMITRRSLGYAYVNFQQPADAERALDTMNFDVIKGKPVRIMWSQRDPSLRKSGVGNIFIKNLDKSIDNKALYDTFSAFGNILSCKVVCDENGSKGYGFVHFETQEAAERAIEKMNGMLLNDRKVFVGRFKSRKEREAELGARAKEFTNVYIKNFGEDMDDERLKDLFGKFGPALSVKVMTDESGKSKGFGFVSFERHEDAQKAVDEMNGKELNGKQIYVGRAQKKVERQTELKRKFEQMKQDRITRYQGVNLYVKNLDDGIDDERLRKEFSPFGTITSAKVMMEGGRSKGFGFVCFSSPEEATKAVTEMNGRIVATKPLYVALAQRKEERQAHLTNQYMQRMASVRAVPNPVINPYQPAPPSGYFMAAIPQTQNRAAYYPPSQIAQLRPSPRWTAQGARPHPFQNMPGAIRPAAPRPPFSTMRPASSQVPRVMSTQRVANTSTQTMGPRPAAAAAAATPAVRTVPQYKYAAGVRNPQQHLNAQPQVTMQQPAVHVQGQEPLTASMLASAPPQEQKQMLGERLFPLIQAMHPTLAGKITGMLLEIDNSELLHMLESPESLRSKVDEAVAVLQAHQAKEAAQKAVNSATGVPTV

How the values were obtained:
[1] = biological target: T1, SLC27A5 (endogenous) (human (endogenous in SNU449 and HepG2)) (UniProt Q9Y2P5); assay: co-IP; endogenous proteins, IP with anti-SLC27A5 and anti-PABPC1 in SNU449 cells and HepG2 cells, immunoblot
T1 sequence: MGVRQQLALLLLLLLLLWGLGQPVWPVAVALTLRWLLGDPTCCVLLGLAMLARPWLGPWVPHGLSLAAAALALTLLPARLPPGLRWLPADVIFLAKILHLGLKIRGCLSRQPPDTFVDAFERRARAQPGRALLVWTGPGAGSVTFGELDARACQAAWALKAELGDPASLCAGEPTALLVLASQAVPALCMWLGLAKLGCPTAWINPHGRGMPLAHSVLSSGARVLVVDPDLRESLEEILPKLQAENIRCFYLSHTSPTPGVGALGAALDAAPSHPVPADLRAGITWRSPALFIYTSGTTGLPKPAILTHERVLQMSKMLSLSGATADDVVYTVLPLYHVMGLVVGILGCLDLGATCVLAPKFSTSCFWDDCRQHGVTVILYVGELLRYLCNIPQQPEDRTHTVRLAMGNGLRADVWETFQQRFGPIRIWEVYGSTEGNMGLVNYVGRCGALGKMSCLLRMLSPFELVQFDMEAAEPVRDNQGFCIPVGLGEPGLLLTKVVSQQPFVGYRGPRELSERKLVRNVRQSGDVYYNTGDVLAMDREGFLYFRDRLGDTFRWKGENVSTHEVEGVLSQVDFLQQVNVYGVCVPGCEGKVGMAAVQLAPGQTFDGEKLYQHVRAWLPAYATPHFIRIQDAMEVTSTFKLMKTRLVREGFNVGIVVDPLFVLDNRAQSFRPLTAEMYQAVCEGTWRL

[2] = biological target: T2, SLC27A5-Flag (solute carrier family 27 member 5) (UniProt Q9Y2P5); assay: co-IP; cells transfected with plasmids for 48 h, NP-40 lysis buffer, protein A/G magnetic beads, immunoblot; cell line and tags not told (Fig. 1G, H; Fig. S1C; Fig. S3B-D; in Fig. S3C with and without SLC27A5, which enhanced PABPC1-RBBP7)
T2 sequence: T1 sequence

GST-SLC27A5 = biological target: T3, GST-SLC27A5 (UniProt Q9Y2P5); assay: pull-down; purified GST-SLC27A5 and His-PABPC1 co-incubated with glutathione agarose beads at 4 °C for 3 h; wash buffer 137 mM NaCl, 2.7 mM KCl, 10 mM Na2HPO4, 2 mM KH2PO4, 0.5 % Triton X-100; Coomassie staining and immunoblot; both purified
T3 sequence: T1 sequence

[3] = biological target: T2, SLC27A5-Flag (solute carrier family 27 member 5); assay: co-IP; HEK-293 cells transfected with SLC27A5-Flag and PABPC1-HA for 48 h, NP-40 lysis buffer, IP with anti-HA or anti-Flag antibody, protein A/G magnetic beads, immunoblot
[4] = biological target: T4, SLC27A5-S296A (enzyme-inactive form of SLC27A5) (UniProt Q9Y2P5); assay: co-IP; cells transfected with plasmids for 48 h, NP-40 lysis buffer, protein A/G magnetic beads, immunoblot; cell line and tags not told (Fig. 1G, H; Fig. S1C; Fig. S3B-D; in Fig. S3C with and without SLC27A5, which enhanced PABPC1-RBBP7)
T4 sequence: T1 sequence with S296A

[5] = biological target: PABPC1-HA (poly(A)-binding protein cytoplasmic 1) (UniProt P11940); assay: as above

PABPC1 (endogenous) (from UniProt P11940 1-636)
binding [1]: binds

PABPC1 deletion mutant ΔN (amino acids 371–636) (from UniProt P11940 371-636) (domain or fragment)
binding [2]: binds

His-PABPC1 (from UniProt P11940 1-636)
binding (GST-SLC27A5): binds

PABPC1-HA (poly(A)-binding protein cytoplasmic 1) (from UniProt P11940 1-636)
binding [3]: binds | binding [4]: binds | binding [2]: binds

B1: SLC27A5 deletion mutant ΔN (amino acids 78–690) (domain or fragment, UniProt Q9Y2P5 78-690)
chain: ARLPPGLRWLPADVIFLAKILHLGLKIRGCLSRQPPDTFVDAFERRARAQPGRALLVWTGPGAGSVTFGELDARACQAAWALKAELGDPASLCAGEPTALLVLASQAVPALCMWLGLAKLGCPTAWINPHGRGMPLAHSVLSSGARVLVVDPDLRESLEEILPKLQAENIRCFYLSHTSPTPGVGALGAALDAAPSHPVPADLRAGITWRSPALFIYTSGTTGLPKPAILTHERVLQMSKMLSLSGATADDVVYTVLPLYHVMGLVVGILGCLDLGATCVLAPKFSTSCFWDDCRQHGVTVILYVGELLRYLCNIPQQPEDRTHTVRLAMGNGLRADVWETFQQRFGPIRIWEVYGSTEGNMGLVNYVGRCGALGKMSCLLRMLSPFELVQFDMEAAEPVRDNQGFCIPVGLGEPGLLLTKVVSQQPFVGYRGPRELSERKLVRNVRQSGDVYYNTGDVLAMDREGFLYFRDRLGDTFRWKGENVSTHEVEGVLSQVDFLQQVNVYGVCVPGCEGKVGMAAVQLAPGQTFDGEKLYQHVRAWLPAYATPHFIRIQDAMEVTSTFKLMKTRLVREGFNVGIVVDPLFVLDNRAQSFRPLTAEMYQAVCEGTWRL
binding [5]: binds
